Some entries share one result that the patent states for a list of compounds.
These molecules were tested on PPARα, PPARγ, or PPARδ (assay: PPAR activity assays (biochemical and cell based)). Details: at least one of the assays, for at least one of PPARα.

EC50, ≤ 1 µM:
COc1ncc(-c2cccc(S(=O)(=O)n3cc(CCC(=O)O)c4ccccc43)c2)c(OC)n1 [Compound P-0086, 3 -{1-[3-(2,4-Dimethoxy-pyrimidin-5-yl)-benzenesulfonyl]-1H-indol-3-yl}-propionic acid]
O=C(O)CCc1cn(S(=O)(=O)c2cccc(-c3ccc(C(F)(F)F)cc3F)c2)c2ccccc12 [Compound P-0087, 3-[1-(2′-Fluoro-4′-trifluoromethyl-biphenyl-3-sulfonyl)-1H-indol-3-yl]-propionic acid]
COc1ccc(-c2cccc(S(=O)(=O)n3cc(CCC(=O)O)c4ccccc43)c2)c(F)c1 [Compound P-0088, 3-[1-(2′-Fluoro-4′-methoxy-biphenyl-3-sulfonyl)-1H-indol-3-yl]-propionic acid]
O=C(O)CCc1cn(S(=O)(=O)c2cccc(-c3ccc(Cl)cc3F)c2)c2ccccc12 [Compound P-0089, 3-[1-(4′-Chloro-2′-fluoro-biphenyl-3-sulfonyl)-1H-indol-3-yl]-propionic acid]
CCOc1ccc(-c2cccc(S(=O)(=O)n3cc(CCC(=O)O)c4ccccc43)c2)c(Cl)c1 [Compound P-0098, 3-[1-(2′-Chloro-4′-ethoxy-biphenyl-3-sulfonyl)-1H-indol-3-yl]-propionic acid]
O=C(O)CCc1cn(S(=O)(=O)c2cccc(-c3ccccc3)c2)c2ccc(F)cc12 [Compound P-0102, 3-[1-(Biphenyl-3-sulfonyl)-5-fluoro-1H-indol-3-yl]-propionic acid]
O=C(O)CCc1cn(S(=O)(=O)c2cccc(-c3ccc(Cl)cc3Cl)c2)c2ccc(F)cc12 [Compound P-0103, 3-[1-(2′,4′-Dichloro-biphenyl-3-sulfonyl)-5-fluoro-1H-indol-3-yl]-propionic acid]
Cc1cc(F)ccc1-c1cccc(S(=O)(=O)n2cc(CCC(=O)O)c3cc(F)ccc32)c1 [Compound P-0104, 3-[5-Fluoro-1-(4′-fluoro-2′-methyl-biphenyl-3-sulfonyl)-1H-indol-3-yl]-propionic acid]
O=C(O)CCc1cn(S(=O)(=O)c2cccc(-c3cccc(Cl)c3Cl)c2)c2ccc(F)cc12 [Compound P-0105, 3-[1-(2′,3′-Dichloro-biphenyl-3-sulfonyl)-5-fluoro-1H-indol-3-yl]-propionic acid]
O=C(O)CCc1cn(S(=O)(=O)c2cccc(-c3cccc(F)c3F)c2)c2ccc(F)cc12 [Compound P-0106, 3-[1-(2′,3′-Difluoro-biphenyl-3-sulfonyl)-5-fluoro-1H-indol-3-yl]-propionic acid]
O=C(O)CCc1cn(S(=O)(=O)c2cccc(-c3ccc(C(F)(F)F)cc3Cl)c2)c2ccc(F)cc12 [Compound P-0107, 3-[1-(2′-Chloro-4′-trifluoromethyl-biphenyl-3-sulfonyl)-5-fluoro-1H-indol-3-yl]-propionic acid]
Cc1cc(Cl)ccc1-c1cccc(S(=O)(=O)n2cc(CCC(=O)O)c3cc(F)ccc32)c1 [Compound P-0108, 3-[1-(4′-Chloro-2′-methyl-biphenyl-3-sulfonyl)-5-fluoro-1H-indol-3-yl]-propionic acid]
CCOc1ccc(-c2cccc(S(=O)(=O)n3cc(CCC(=O)O)c4cc(F)ccc43)c2)c(Cl)c1 [Compound P-0109, 3-[1-(2′-Chloro-4′-ethoxy-biphenyl-3-sulfonyl)-5-fluoro-1H-indol-3-yl]-propionic acid]
O=C(O)CCc1cn(S(=O)(=O)c2cccc(-c3cccc(F)c3Cl)c2)c2ccc(F)cc12 [Compound P-0110, 3-[1-(2′-Chloro-3′-fluoro-biphenyl-3sulfonyl)-5-fluoro-1H-indol-3-yl]-propionic acid]
O=C(O)CCc1cn(S(=O)(=O)c2cccc(-c3ccc(F)cc3Cl)c2)c2ccc(F)cc12 [Compound P-0111, 3-[1-(2′-Chloro-4′-fluoro-biphenyl-3-sulfonyl)-5-fluoro-1H-indol-3-yl]-propionic acid]

From patent US8053463B2, “PPAR active compounds” (Plexxikon Inc., priority 2007, dated 2011)
